No constants are given. Whether binding was seen depends on the method and setting. Binding seen in cells or lysates may run through a third protein. Binding can be weak; no strength is given. For part of these data: Tags and fused reporters may be left off the sequences shown. Values belong to the molecule of their own block, whether it stands above or below them.
Key:
[1] = biological target: T1, GST-RacGEF (GxcDD residues 395-707 containing the RacGEF domain, GST fusion) (Dictyostelium discoideum) (UniProt Q1ZXH8); assay: pull-down; GST-RacGEF on glutathione-sepharose beads incubated 3 hrs at 4°C with lysates of AX2 cells expressing GFP-Rac fusions (25 mM Tris pH 7.5, 150 mM NaCl, 5 mM EDTA, 0.5% Triton X-100, 1 mM NaF, 0.5 mM Na3VO4, 1 mM DTT); eluates immunoblotted with a GFP monoclonal antibody; only the target purified
T1 sequence: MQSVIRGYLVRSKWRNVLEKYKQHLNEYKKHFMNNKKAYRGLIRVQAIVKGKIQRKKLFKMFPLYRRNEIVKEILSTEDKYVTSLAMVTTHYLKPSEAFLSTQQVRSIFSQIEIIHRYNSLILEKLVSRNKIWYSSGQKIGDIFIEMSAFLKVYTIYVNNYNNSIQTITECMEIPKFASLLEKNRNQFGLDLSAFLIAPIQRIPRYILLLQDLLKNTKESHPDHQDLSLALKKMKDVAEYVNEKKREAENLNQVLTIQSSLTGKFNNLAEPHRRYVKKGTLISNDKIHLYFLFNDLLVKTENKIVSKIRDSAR

By UniProt entry, the sequences of proteins in these tests, tags left out. Where a name states a change or a piece, a line headed by the entry shows the natural chain unless it says otherwise.
UniProt P34147: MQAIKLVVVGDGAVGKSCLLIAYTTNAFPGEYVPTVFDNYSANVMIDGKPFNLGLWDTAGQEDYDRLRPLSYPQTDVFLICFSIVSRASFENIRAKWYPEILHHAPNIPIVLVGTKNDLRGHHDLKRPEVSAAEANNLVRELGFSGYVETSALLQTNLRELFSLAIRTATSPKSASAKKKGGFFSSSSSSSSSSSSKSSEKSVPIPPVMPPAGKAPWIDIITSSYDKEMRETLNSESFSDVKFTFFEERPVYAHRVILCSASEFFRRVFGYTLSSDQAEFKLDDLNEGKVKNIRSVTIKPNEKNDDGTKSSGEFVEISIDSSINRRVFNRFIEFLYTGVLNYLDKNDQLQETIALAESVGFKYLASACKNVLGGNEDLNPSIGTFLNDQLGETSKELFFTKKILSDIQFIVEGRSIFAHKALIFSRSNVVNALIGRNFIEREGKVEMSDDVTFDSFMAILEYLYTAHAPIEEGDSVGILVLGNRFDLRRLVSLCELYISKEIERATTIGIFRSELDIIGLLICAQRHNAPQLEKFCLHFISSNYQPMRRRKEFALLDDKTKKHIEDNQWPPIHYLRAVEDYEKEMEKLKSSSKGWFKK

[2] = biological target: GST-ArfGAP-PH (GxcDD residues 1269-1619 containing the ArfGAP-PH tandem, GST fusion) (Dictyostelium discoideum) (UniProt Q1ZXH8); assay: pull-down; GST-ArfGAP-PH on glutathione-sepharose beads incubated with wild type AX2 cell lysates; a unique band identified by MALDI-TOF mass spectroscopy, confirmed by western blot with GxcDD polyclonal antibodies; only the target purified
[3] = biological target: GST-ArfGAP-PH (GxcDD residues 1269-1619 containing the ArfGAP-PH tandem, GST fusion) (Dictyostelium discoideum) (UniProt Q1ZXH8); assay: pull-down; GST-RacGEF or GST-ArfGAP-PH on glutathione-sepharose beads incubated with lysates of AX2 cells expressing GFP-CH; eluates immunoblotted with a GFP monoclonal antibody; only the target purified

binding [1]: binds
Molecule: GFP-RacA (GTPase domain) (from UniProt P34147) (domain or fragment)

binding [2]: binds
Molecule: GxcDD (Guanine exchange factor for Rac GTPases), full length (from UniProt Q1ZXH8 1-1632)

binding [3]: binds
B1: GFP-CH (first 134 residues of GxcDD with the CH domain, fused to GFP) (domain or fragment, UniProt Q1ZXH8 1-134)
chain: MQPKDYMSSSHANWENIQIDSFTSWINQHLSERGLSVKDLSVDFQDGVLLLNLLEILSGKKIARYVRSPKFLQHKIDNIMIAFNFMEKAFDIKVFGCNAKDIVDGNLKQTMGVIFLLIQKIKVNLHLDHLQEQQ
